At least one structure is not confirmed: it was looked up by name or label, or the drawing left a doubt.
What was measured:
[1] = tested on: AP-1 binding and stromelysin gene expression; details: cited from earlier work
rabbit carotid arteries = details: in vivo; cited from earlier work
rat carotid arteries = details: local periadventitial delivery; cited from earlier work
[2] = Kinetic drug-release study of coated stent in phosphate-buffered saline with 1 mass % sodium dodecyl sulfate, HPLC; type: physicochemical
[3] = tested on: human female vascular smooth muscle cells; details: cited from earlier work
PPARs = details: cited from earlier work

CC1=C(/C=C/C(C)=C/C=C/C(C)=C/C(=O)O)C(C)(C)CCC1 [Retinoic acid]
AP-1 binding and stromelysin gene expression [1]: interfered

C[C@@H]1C[C@H]2[C@@H]3CCC4=CC(=O)C=C[C@]4(C)[C@@]3(F)[C@@H](O)C[C@]2(C)[C@@]1(O)C(=O)CO [dexamethasone]
intimal thickening/hyperplasia of rabbit carotid arteries after Fogarty balloon denudation (rabbit carotid arteries): suppressed
neointimal thickening/proliferation after balloon injury of rat carotid arteries (rat carotid arteries): prevented

C[C@]12CC[C@@H]3c4ccc(O)cc4CC[C@H]3[C@@H]1CC[C@@H]2O [estradiol]
estradiol released ([2]; after 2 days, topcoat about 160 μg, estradiol about 30 μg, PBS with 1 mass % SDS): about 13 mass %
estradiol released ([2]; after 4 days): ~21%
estradiol released ([2]; after 6 days): ~29%
estradiol released ([2]; after 8 days): ~35%
estradiol released ([2]; after 10 days): ~46%
estradiol released ([2]; after 10 days, topcoat about 160 μg, estradiol about 30 μg, PBS with 1 mass % SDS): about 50 mass %
proliferation and migration of human female vascular smooth muscle cells [3]: inhibited

CCc1ccc(CCOc2ccc(CC3SC(=O)NC3=O)cc2)nc1 (stereo not shown) [pioglitazone]
PPAR subtypes activated (PPARs): γ

CN(CCOc1ccc(CC2SC(=O)NC2=O)cc1)c1ccccn1 (stereo not shown) [rosiglitazone]
PPAR subtypes activated (PPARs): δ, γ

Cc1c(C)c2c(c(C)c1O)CCC(C)(COc1ccc(CC3SC(=O)NC3=O)cc1)O2 (stereo not shown) [troglitazone]
PPAR subtypes activated (PPARs): γ
